The source of these data is patent publication EP3461488A1, “COMBINATION OF A DBAIT MOLECULE AND A HDAC INHIBITOR FOR TREATING CANCER” (ONXEO, priority 2017, dated 2019).

In assay [1] the test system is triple negative breast cancer cell line MDA-MB-231. Put plainly: XTT cell survival assay and combination index analysis, MDA-MB-231. The format is cell-based. Conditions: Homo sapiens, XTT assay, monotherapy, increasing concentrations for 4 to 7 days, dose at which 50% of the cells are viable. A general note: Tetrazolium dyes change colour on reduction, which living cells bring about.

Assay [2] has as its system histiocytic lymphoma cell line U937. Description: XTT cell survival assay and combination index analysis, U937. Format: cell-based. To be noted: Homo sapiens, U-937, XTT assay, monotherapy, increasing concentrations for 4 to 7 days, dose at which 50% of the cells are viable.

Regarding `O=C(CCCCCCC(=O)Nc1ccccc1)NO` [Vorinostat, N-hydroxy-N'-phenyloctanediamide], the IC50 (in general, the point on the concentration scale where inhibition reaches its midpoint) was 1500 nM in assay [1] and 600 nM in assay [2].
